From the supplement of paper PMC3334620
The full ranking holds about 33,000 sequences; the median of “E-score (-0.5 to 0.5)” is about -0.016, and the highest 2% start at about 0.3. Some of the results follow.

biological target: T1, Yer184c (UniProt P39961); experiment: PBM E-score (8-mer binding enrichment) (E-score (-0.5 to 0.5)); higher = stronger / more preferred TF binding; settings: protein concentration: 100 nM; construct: GST-full length
T1 sequence: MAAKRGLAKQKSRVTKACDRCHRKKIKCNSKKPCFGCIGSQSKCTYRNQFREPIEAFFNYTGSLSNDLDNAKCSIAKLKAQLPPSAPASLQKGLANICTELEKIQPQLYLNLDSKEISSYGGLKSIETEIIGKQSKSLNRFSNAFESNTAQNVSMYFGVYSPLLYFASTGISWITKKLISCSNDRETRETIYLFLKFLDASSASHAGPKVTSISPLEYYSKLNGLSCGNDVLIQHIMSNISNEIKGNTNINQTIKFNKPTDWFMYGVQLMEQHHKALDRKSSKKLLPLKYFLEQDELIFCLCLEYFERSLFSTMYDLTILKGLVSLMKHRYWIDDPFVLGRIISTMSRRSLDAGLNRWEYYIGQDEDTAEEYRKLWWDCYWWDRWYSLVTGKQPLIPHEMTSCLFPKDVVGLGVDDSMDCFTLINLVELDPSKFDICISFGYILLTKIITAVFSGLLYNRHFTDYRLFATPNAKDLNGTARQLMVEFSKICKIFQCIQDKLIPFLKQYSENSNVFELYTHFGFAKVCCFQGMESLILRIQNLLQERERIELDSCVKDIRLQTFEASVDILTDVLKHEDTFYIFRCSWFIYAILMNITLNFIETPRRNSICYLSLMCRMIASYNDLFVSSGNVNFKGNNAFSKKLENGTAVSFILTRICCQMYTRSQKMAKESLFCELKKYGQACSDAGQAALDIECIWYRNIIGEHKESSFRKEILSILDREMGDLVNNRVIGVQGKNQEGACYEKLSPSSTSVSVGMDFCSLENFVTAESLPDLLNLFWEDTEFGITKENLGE
Method in brief: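 PURExpress in vitro transcription/translation supplied GST-tagged yeast transcription factors, either full-length or DNA-binding domain. Applied at about 100-200 nM to universal all-10-mer Agilent arrays double-stranded by primer extension, the bound protein was detected with fluorescent anti-GST. E-scores, modified Wilcoxon-Mann-Whitney statistics, were given by the Universal PBM Analysis Suite to ungapped eight-base words pooled with their reverse complements after masliner normalisation.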

Sequence | PBM E-score
TGGCACCA | -0.25
GACCGCAC | -0.146
ACGGTTCC | 0.127
GCAGTCCA | -0.103
ATTGTGGG | -0.173
AGCGCGAT | -0.00195
GCTCCGAC | -0.0639
ATCTGGGC | -0.18
ATTCTGCA | 0.124
AGACGTTC | 0.0147
ATGCGCCA | -0.156
ACCTAAAG | 0.084
GTCAAGAC | -0.127
CCAAACCG | 0.136
AGGGAGAA | -0.0924
CAACCAAA | -0.00617
AACTCTAC | -0.121
ACAAGTAG | -0.201
CATTGCTA | 0.057
CCTCTTAA | 0.0803
CCACTACA | -0.155
AGTAAGCC | -0.207
AAGGTCTG | -0.0795
ATTTCGCA | 0.24
CCAATTCG | -0.0621

Reformatted as a markdown table: entries from further up.

| Sequence | PBM E-score |
| --- | --- |
| ATTCTGCA | 0.124 |
| AGGGAGAA | -0.0924 |
| CAACCAAA | -0.00617 |

Remaining list, next part.

Sequence | PBM E-score
AGATAAGC | -0.051
CGTAAGTA | 0.0901
CCCAAAGG | -0.158
CTCACATC | -0.123
GAGCTACA | -0.129
CATATATA | 0.28
AGGGACCC | -0.319
ACGATCGG | 0.0369
CCTGAGAC | -0.242
CGCCGTTC | 0.164
TCCTTTCA | 0.0974
AGTAAAGC | 0.0937
AACCGCCG | 0.223
AACAGGAC | -0.0566
AGACAATG | -0.0462
GTGCAATA | -0.0961
AAATGCGC | 0.162
GACCCATA | -0.0721
GATAATGA | 0.077
AACCGTTA | 0.0014
AGGTGTCC | -0.0169
AAGAAAGT | 0.148
GGTCATCA | -0.19
ACTCACGC | -0.0772
ACTCTATA | -0.0712

Sequence | PBM E-score
CATCGTAA | 0.0806
ACATCACA | -0.056
GCGTCAGA | -0.23
GCCGATTA | 0.274
AACTACTA | 0.112
ATTGCCCC | -0.24
CCAGGCCC | -0.138
CCTACTAC | -0.0717
TCAATCGA | 0.0483
ATCCCAAA | -0.015
CAGAGTGG | -0.205
AGAAACAG | -0.0454
GATTACCA | 0.0238
AAAGTAGT | -0.00674
CATTAGGG | -0.12
AGACGCCT | -0.203
ACGTAGTG | -0.226
AAGACGCC | 0.0681
CTAATATA | 0.118
AGGCCAGG | -0.26
ATCAAAAG | 0.11
GGCCTACC | -0.147
TAACTGGA | -0.111
GCCGTGCA | -0.0105
CCTCGTAC | 0.00997

7 records drawn at random from those above, as already listed:
Sequence | PBM E-score
GAGCTACA | -0.129
TAACTGGA | -0.111
ACTCACGC | -0.0772
CCAGGCCC | -0.138
GACCCATA | -0.0721
ATCAAAAG | 0.11
ATGCGCCA | -0.156

Further entries

Sequence | PBM E-score
AACTTTTA | 0.196
ATGAGTAC | -0.0717
CCTAGGTC | -0.139
CTGTCAAG | -0.14
CCTCAAAA | 0.0505
GCTTTACC | -0.00898
CTGACAAG | 0.0434
GGAACCCC | -0.223
GCCTGAAA | 0.191
GCGCACCC | -0.028
ACACACGG | 0.111
AACCGACC | 0.147
ATGCTGAG | -0.261
CAACGCAG | -0.0829
GAATAACC | 0.0185
ACAGACGC | -0.0642
ACCCTTTC | -0.0222
GAACGTGA | 0.0388
GCCTCGTA | 0.00566
GTAGCCGA | 0.165
CACCTGCA | -0.131
CATGCTAA | -0.0701
GACGCTCC | -0.0887
CGTCGGAG | 0.0883
GGGCGCCC | 0.0854

Sequence | PBM E-score
ATAAACCG | 0.112
CACGTCTC | -0.0953
CTAATGCA | 0.0794
AGTGTCAA | 0.022
ACTAGACT | -0.26
CAGATATC | 0.0611
ACGGTGCC | 0.136
ACAAAGTC | -0.106
AGTGAAAA | 0.158
CCGCTGAC | -0.0991
CCCGCACG | -0.0578
ACCTAGGT | -0.213
GAATCACC | -0.0203
GTATCGCA | 0.0506
CGGGACCG | 0.31
AATAAGCC | -0.0336
ACTGGTCT | -0.135
CGCAGTTA | 0.0714
CCGCCTGA | -0.12
ATGAGCAT | 0.106
CAGGTTTA | 0.0392
ATGAGAAA | 0.11
TAAGACGA | -0.0596
AGCGATGA | -0.0495
CAGAAACA | 0.0511

Sequence | PBM E-score
GCAAACTA | 0.0897
AATCCGAT | 0.275
GGACTGAA | 0.0645
CCAGTGTC | -0.169
ACGGAATG | 0.167
AGCGGTTC | -0.037
ACACCTAA | -0.00993
TCATAAAA | 0.192
CTAAATGA | -0.0287
CCGCGGGC | 0.25
AAGCCCTC | -0.202
AAAGTGGT | -0.106
ACACATAC | -0.0164
ATCAAGCC | 0.0569
CCTAACCG | -0.0409
ATCTCTGA | -0.107
CAAAACGG | 0.188
AAACCGAC | 0.0341
GCTCTTCC | 0.0925
ACTTGAAG | -0.0169
ATTCATCG | 0.0799
ACACTGAG | -0.154
CGTGCCGC | 0.034
AGAATCAT | 0.0874
CTCGAGCA | 0.0232

Part of the list above, with each value named.
CCGCCTGA
  PBM E-score = -0.12
ATGAGCAT
  PBM E-score = 0.106

Remaining list, next part.

Sequence | PBM E-score
CGGCCTTA | 0.291
ACAAGTGC | -0.264
CTTCATCC | -0.0447
AACACCCT | -0.14
ACAGATGA | -0.112
ACGGGGAA | 0.021
AAACCAGA | 0.0295
AGCGATGC | -0.237
GCGTGGCC | -0.214
ATTGGTAA | -0.00982
AAGTTGAC | 0.0297
GGAGCAAC | 0.00011
ACAGCGCT | 0.00749
CATCACCC | -0.152
CAAAAGCA | 0.0284
GTGAAAAC | 0.0796
AGCGAAGC | -0.11
AAATCCGG | 0.394
GGGAAACC | 0.121
GAACCGAA | 0.288
TTAATCAA | 0.198
CCGAGACC | 0.176
GTACTATA | 0.176
CAGGAAAC | 0.117
AACTTACG | 0.0113

Sequence | PBM E-score
GCTATTAC | 0.0192
GGGAATAC | 0.0278
GGTCAGTA | -0.0202
GGATGCCA | -0.169
CCACTTGA | -0.0483
ACAGTCTA | -0.0163
TAGCACTA | -0.16
AGGTAAAT | -0.0404
CGGGGCTC | -0.147
GGTGATAA | -0.105
ATCCCCCG | -0.116
CTAAACAA | -0.068
ACCAACCT | -0.143
CGAGGGGA | -0.0468
CGTTAATC | 0.0724
CTAATATC | 0.181
GCCAGATA | -0.0238
ACCATCAA | -0.0539
CCGTCAGC | 0.0445
CTCACTAA | -0.0113
AACTGCCA | -0.134
AGCGCATA | -0.0254
CGCTCAGA | 0.0821
CCTTCGGA | 0.327
ATCCCACG | -0.209

Sequence | PBM E-score
AGCATACG | -0.0401
CTTAGGTC | 0.0331
CCTATAGC | -0.253
ACGTCATA | 0.0381
AGTCCTTG | -0.0369
GATGGCAA | 0.12
GGACGGAC | -0.0479
TAAAGCTA | -0.0256
CGCCGCTA | 0.044
AGTGCCCA | -0.152
AACTGCCG | 0.21
CGCAAGAA | 0.221
CCGAGACG | 0.246
GCAAGAAA | 0.161
ATCGTATC | -0.0614
AATACCGG | 0.336
CGACTTTC | 0.0556
GCACAGTA | 0.00244
CATGGGAC | -0.14
